Test results reported in paper PMC10077476.

Amino acid sequences for entries named in this document (tags omitted).
UniProt Q91YE6: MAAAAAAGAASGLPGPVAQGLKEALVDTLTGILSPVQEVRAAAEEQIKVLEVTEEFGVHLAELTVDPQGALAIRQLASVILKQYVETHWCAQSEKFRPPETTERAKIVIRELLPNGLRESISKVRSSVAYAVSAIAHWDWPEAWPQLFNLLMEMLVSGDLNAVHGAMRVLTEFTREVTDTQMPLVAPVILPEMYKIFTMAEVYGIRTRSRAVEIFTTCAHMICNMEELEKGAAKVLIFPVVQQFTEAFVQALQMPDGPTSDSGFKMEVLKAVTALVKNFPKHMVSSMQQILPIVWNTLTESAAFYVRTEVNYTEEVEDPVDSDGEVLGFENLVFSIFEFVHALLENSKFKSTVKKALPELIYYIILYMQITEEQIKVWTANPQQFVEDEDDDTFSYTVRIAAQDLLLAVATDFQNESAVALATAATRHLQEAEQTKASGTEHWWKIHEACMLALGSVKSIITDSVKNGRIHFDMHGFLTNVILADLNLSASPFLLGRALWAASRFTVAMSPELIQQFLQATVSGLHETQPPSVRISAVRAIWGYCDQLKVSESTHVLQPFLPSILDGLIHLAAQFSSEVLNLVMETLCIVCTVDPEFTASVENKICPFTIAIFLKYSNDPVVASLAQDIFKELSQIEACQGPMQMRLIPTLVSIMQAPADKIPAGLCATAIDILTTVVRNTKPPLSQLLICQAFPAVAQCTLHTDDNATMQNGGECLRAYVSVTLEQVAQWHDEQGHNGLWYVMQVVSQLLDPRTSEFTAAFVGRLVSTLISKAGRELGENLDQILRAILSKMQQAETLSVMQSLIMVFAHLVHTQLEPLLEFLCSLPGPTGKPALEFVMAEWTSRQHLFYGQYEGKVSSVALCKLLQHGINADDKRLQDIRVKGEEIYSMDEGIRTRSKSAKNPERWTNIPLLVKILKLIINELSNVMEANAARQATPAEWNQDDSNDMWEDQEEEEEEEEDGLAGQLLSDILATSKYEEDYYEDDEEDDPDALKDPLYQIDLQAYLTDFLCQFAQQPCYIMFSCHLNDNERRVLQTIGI

Molecular target: T1, myocardin-related transcription factor-A (endogenous, mouse aortic SMCs) (mouse (endogenous in mouse AoSMCs)) (UniProt Q8K4J6)
T1 sequence: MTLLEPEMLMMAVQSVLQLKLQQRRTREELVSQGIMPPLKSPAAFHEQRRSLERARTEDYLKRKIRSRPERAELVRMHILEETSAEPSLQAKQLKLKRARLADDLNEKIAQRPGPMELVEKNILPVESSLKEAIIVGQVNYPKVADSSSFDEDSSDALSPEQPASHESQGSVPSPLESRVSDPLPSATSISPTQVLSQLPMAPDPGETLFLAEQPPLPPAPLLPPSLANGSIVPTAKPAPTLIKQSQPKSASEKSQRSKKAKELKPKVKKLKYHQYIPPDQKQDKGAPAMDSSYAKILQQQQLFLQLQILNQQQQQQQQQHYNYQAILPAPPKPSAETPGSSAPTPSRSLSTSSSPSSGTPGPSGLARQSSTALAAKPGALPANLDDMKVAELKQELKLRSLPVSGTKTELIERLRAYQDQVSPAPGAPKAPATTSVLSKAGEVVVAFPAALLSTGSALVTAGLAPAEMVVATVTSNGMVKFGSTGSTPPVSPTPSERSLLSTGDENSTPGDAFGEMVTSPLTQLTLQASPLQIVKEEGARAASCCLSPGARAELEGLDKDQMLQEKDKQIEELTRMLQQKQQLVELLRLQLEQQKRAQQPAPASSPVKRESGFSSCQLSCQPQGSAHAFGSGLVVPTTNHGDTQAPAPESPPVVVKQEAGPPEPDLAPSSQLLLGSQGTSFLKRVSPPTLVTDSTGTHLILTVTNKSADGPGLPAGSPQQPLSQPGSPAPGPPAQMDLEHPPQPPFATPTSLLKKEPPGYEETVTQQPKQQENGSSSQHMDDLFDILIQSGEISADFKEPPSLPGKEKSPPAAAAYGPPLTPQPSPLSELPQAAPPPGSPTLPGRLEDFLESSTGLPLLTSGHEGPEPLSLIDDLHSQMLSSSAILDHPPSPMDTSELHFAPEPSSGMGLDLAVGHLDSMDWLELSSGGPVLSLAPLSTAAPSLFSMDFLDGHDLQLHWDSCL
Assay: affinity purification with mass spectrometry; endogenous MRTF-A immunoprecipitated with an anti-MRTF-A Ab from mouse AoSMC lysates; washed immunoprecipitates analysed by LC-MS/MS

Molecule	binding
importin 9 (endogenous, mouse aortic SMCs) (from UniProt Q91YE6 1-1041)	binds
Prdm6 (endogenous, mouse aortic SMCs) (protein, UniProt Q3UZD5 1-596) MLKPGDPGGSAFLKVDPAYLQHWQQLFPHGGGGGGPLKASGAALALGAPQPLQPPPPPPPPPPERAEPPPDGLRPRPASLSSTPAPSSTSASSASSCAAAAAAAALAGLSALPVAQMPVFAPLAAAAVAAEPLPPKDLCLGASAGPGPAKCGGGGGSVGDGRGVPRFRCSAEELDYYLYGQQRMEIIPLNQHTSDPNNRCDMCADNRNGECPMHGPLHSLRRLVGTSSAAAAAPPPELPEWLRDLPREVCLCTSTVPGLAYGICAAQRIQQGTWIGPFQGVLLSPEKVQTGVVRNTQHLWEIYDQDGTLQHFIDGGEPSKSSWMRYIRCARHCGEQNLTVVQYRSNIFYRACIDIPRGTELLVWYNDSYTSFFGIPLQCIAQDENLNVPSTVMEAMCRQDALQPFNKSSKLSPSGQQRSVVFPQTPCSRNFSLLDKSGPMEAGFNQINVKNQRVLASPTSTSQLHSEFSDWHLWKCGQCFKTFTQRILLQMHVCTQNPDRPYQCGHCSQSFSQPSELRNHVVTHSSDRPFKCGYCGRAFAGATTLNNHIRTHTGEKPFKCERCERSFTQATQLSRHQRMPNECKPITESPESIEVD	binds

No constants are given. Whether binding was seen depends on the method and setting. In cells and extracts the contact can be indirect. A yes stands for co-enrichment or nearness to the bait. Other partners may have been found.
